In publication PMC9755262 (Nature Communications, 2022) one finds binding data, which are given here for two substances.

Chains of the proteins cited; added tags and fusions are not shown. Residues count along the entry.
UniProt Q86Y26, residues 347-480: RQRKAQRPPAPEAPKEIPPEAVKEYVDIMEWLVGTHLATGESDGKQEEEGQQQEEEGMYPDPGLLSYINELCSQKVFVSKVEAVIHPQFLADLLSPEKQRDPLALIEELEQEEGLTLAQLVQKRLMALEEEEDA

No constants are given. Whether binding was seen depends on the method and setting. Some binding calls cover weakened binding; strength is not graded here.

For one assay, the target named is NUT4 (347-480) (UniProt Q86Y26). Description: SEC-MALS; Superdex 75 Increase 10/300 GL, 20 mM HEPES pH 7.0, 300 mM NaCl, 5 µM ZnSO4, 0.5 mM TCEP; 50 µl at 2 mg/ml injected; both purified. On the technique in general: SEC sorts molecules by how far they enter the pores of the column.
Assay [1] deals with Histone H3 (S. cerevisiae, in the NCP) (S. cerevisiae) (UniProt P61830). Description: cross-linking; NCPs and p300 core-CH3 (1043-1828) at 0.5-1 mg/ml, 2 mM DSS-H12/D12, 30 min at 35 °C; 20 mM HEPES pH 7.0, 300 mM NaCl, 1 mM DTT, 5 µM ZnCl2; mass spectrometry; both purified.

As for “NUT4 (347-480) (from UniProt Q86Y26 347-480) (domain or fragment)”, in the assay with NUT4 (347-480), the binding entry was “no binding (tested: 2 mg/ml injected)”.

In the case of “p300 core-CH3 (1043-1828) (from UniProt Q09472 1043-1828) (domain or fragment)”, the binding result in assay [1] was “binds”.
